Experimental data: patent US20030087394
At least one result comes from cells or an extract, where the contact may be indirect. No signal at the amounts used counts as a negative. For some of these results: For at least one entry, the source does not settle the construct or the ends of the probe.

Chains of the proteins cited; added tags and fusions are not shown.
UniProt A0A1U7RCQ9, entry or part of it: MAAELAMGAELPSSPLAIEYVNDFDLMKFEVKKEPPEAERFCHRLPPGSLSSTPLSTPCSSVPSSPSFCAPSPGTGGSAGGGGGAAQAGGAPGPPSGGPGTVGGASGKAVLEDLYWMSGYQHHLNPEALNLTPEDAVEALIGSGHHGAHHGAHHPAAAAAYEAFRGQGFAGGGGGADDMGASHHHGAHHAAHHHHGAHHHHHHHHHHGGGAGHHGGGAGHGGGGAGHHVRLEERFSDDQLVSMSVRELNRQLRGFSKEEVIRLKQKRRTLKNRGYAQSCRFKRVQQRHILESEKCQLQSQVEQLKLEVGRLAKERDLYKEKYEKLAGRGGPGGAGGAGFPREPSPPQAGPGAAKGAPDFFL

What was measured:
[1] = biological target: RIPE3b1 factor (endogenous mMafA) (UniProt A0A1U7RCQ9); test: competition with a labelled probe; conditions: 50-fold excess, protein in an extract, protein details: HIT T-15 nuclear extract
[2] = system: RIPE3b2 factor (small Maf, MafF/G/K); test: competition with a labelled probe; conditions: 50-fold excess, protein in an extract, protein details: HIT T-15 nuclear extract
[3] = variant of alphaA-crystallin Maf site wild type

Sequence | binding result ([1]; also bound as probe) | binding result [2] | binding result [1, 3] | binding result [2, 3]
ACGTAGCATTCCAGCTGCTGACGGTGCAGCCTCTCCCCCGAG (double strand) [alphaA-crystallin Maf site wild type] | binds | binds | – | –
ACGTAGCATTCCAGCTGCTGCCGGTGCAGCCTCTCCCCCGAG (double strand) [alphaA-crystallin Maf site mutant] | – | – | no binding | no binding
